The results in this text go back to patent US10959984B2, “Methods for treating cancer with RORγ inhibitors” (THE REGENTS OF THE UNIVERSITY OF CALIFORNIA, priority 2015, dated 2021).

SMILES strings stand for the structures.

For this data set, the system named is C4-2B cells. Nature of the data set: RNA-seq gene expression profiling. The note with it: 5 μM antagonist vs 20 μM ENZ, 48 h. Type of data set: cell-based, human.

For `CCN1C(=O)c2cccc3c(S(=O)(=O)Nc4ccc(OC)c(OC)c4)ccc1c23` [XY011, N-(3′,4′-dimethoxyphenyl)-1-ethyl-2-oxo-1,2-dihydrobenzo[cd]indole-6-sulfonamide], the “overlap of down-regulated genes with profile of anti-androgen ENZ” value is 38%.

`OC(c1ccc(-c2ccc(CN3CCN(Cc4ccncc4)CC3)cc2)c(F)c1)(C(F)(F)F)C(F)(F)F` [SR2211, 2-Fluoro-4′-[[4-(4-pyridinylmethyl)-1-piperazinyl]methyl]-a,a-bis (trifluoromethyl)-[1,1′-biphenyl]-4-methanol]: the “overlap of down-regulated genes with profile of anti-androgen ENZ” value is reported as 41%.
